From the supplement of paper PMC6078165
Values are relative to the signal before dosing, not to a vehicle control; the signal also falls without drug.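 Fibroblast labels denote human fibroblasts, mainly primary ones from uterus (C12385, HUF), lung (H6013), bone (Hs27A), adrenal (HADF) and skin (WS1), plus mammary HMF and breast cancer-associated Hs343T. Cancer cells are basal-like or mesenchymal-like triple-negative breast cancer lines. A hit is a response shift exceeding 3x replicate standard deviation. The tissue of the other fibroblasts is not given here.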

System: MDAMB468
Experiment: relative JC-1 red fluorescence (viability) vs pre-drug, coculture with fibroblast (fraction); higher = more viable cancer cells
Method: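 JC-1 labelled TNBC cells cocultured 1:1 (1,500 cells each) with CellTrace Violet stained primary or stromal fibroblasts in 384-well plates in FluoroBrite medium, treated with one of 42 anticancer drugs at 0.1, 1, 10 or 100 uM. JC-1 red fluorescence (mitochondrial integrity in cancer cells only) was read by plate reader every 8 h for 72 h. Values are normalised to each well's pre-drug value. The stock of one drug was tenfold lower, so its dose labels may be too high.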

CCc1c2c(nc3ccc(OC(=O)N4CCC(N5CCCCC5)CC4)cc13)-c1cc3c(c(=O)n1C2)COC(=O)[C@]3(O)CC [Irinotecan]
relative JC-1 red fluorescence
Conditions | 8 h | 16 h | 24 h | 32 h | 40 h | 48 h | 56 h | 64 h | 72 h
10 µM, coculture fibroblast: C12385 | 0.891 | 0.829 | 0.803 | 0.735 | 0.694 | 0.677 | 0.633 | 0.599 | 0.586
10 µM, coculture fibroblast: H6013 | 0.887 | 0.882 | 0.823 | 0.782 | 0.721 | 0.715 | 0.669 | 0.648 | 0.595
10 µM, coculture fibroblast: H6019 | 0.83 | 0.867 | 0.865 | 0.828 | 0.808 | 0.809 | 0.759 | 0.743 | 0.737
10 µM, coculture fibroblast: H6076 | 0.947 | 0.939 | 0.95 | 0.954 | 0.871 | 0.8568 | 0.817 | 0.794 | 0.866
10 µM, coculture fibroblast: H6231 | 0.853 | 0.9509 | 0.889 | 0.884 | 0.824 | 0.802 | 0.747 | 0.707 | 0.678
10 µM, coculture fibroblast: HADF | 0.8985 | 0.855 | 0.814 | 0.7822 | 0.7055 | 0.674 | 0.615 | 0.58 | 0.517
10 µM, coculture fibroblast: HCFa | 0.872 | 0.867 | 0.814 | 0.779 | 0.699 | 0.684 | 0.628 | 0.589 | 0.541
10 µM, coculture fibroblast: HCPF | 0.889 | 0.894 | 0.868 | 0.88 | 0.786 | 0.7711 | 0.729 | 0.724 | 0.732
10 µM, coculture fibroblast: HHSteC | 0.902 | 0.892 | 0.854 | 0.824 | 0.787 | 0.776 | 0.692 | 0.666 | 0.605
10 µM, coculture fibroblast: HMF | 0.871 | 0.902 | 0.879 | 0.912 | 0.826 | 0.826 | 0.787 | 0.781 | 0.799
10 µM, coculture fibroblast: HPFa | 0.959 | 0.962 | 0.931 | 0.873 | 0.839 | 0.827 | 0.761 | 0.739 | 0.661
10 µM, coculture fibroblast: HUF | 0.916 | 0.807 | 0.756 | 0.691 | 0.634 | 0.5938 | 0.546 | 0.527 | 0.501
10 µM, coculture fibroblast: Hs5 | 0.895 | 0.9578 | 0.865 | 0.867 | 0.801 | 0.805 | 0.855 | 0.819 | 0.715
10 µM, coculture fibroblast: Hs27A | 0.8929 | 0.852 | 0.7821 | 0.7641 | 0.683 | 0.6558 | 0.616 | 0.592 | 0.545
10 µM, coculture fibroblast: Hs343T | 0.878 | 0.9233 | 0.883 | 0.889 | 0.794 | 0.774 | 0.721 | 0.71 | 0.709
10 µM, coculture fibroblast: WS1 | 0.8836 | 0.813 | 0.7877 | 0.754 | 0.704 | 0.685 | 0.664 | 0.648 | 0.646
100 µM, coculture fibroblast: C12385 | 0.8363 | 0.835 | 0.824 | 0.766 | 0.732 | 0.734 | 0.696 | 0.677 | 0.67
100 µM, coculture fibroblast: H6013 | 0.889 | 0.904 | 0.86 | 0.848 | 0.867 | 0.883 | 0.856 | 0.863 | 0.812
100 µM, coculture fibroblast: H6019 | 0.851 | 0.8546 | 0.826 | 0.77 | 0.742 | 0.748 | 0.716 | 0.723 | 0.73
100 µM, coculture fibroblast: H6076 | 0.951 | 0.968 | 0.951 | 0.94 | 0.876 | 0.889 | 0.865 | 0.859 | 0.887
100 µM, coculture fibroblast: H6231 | 0.837 | 0.899 | 0.831 | 0.814 | 0.719 | 0.691 | 0.641 | 0.609 | 0.61
100 µM, coculture fibroblast: HADF | 0.915 | 0.92 | 0.885 | 0.893 | 0.915 | 0.906 | 0.873 | 0.863 | 0.769
100 µM, coculture fibroblast: HCFa | 0.911 | 0.9 | 0.8613 | 0.8396 | 0.8172 | 0.826 | 0.791 | 0.769 | 0.73
100 µM, coculture fibroblast: HCPF | 0.921 | 0.966 | 0.937 | 0.832 | 0.9 | 0.879 | 0.858 | 0.856 | 0.857
100 µM, coculture fibroblast: HHSteC | 0.92 | 0.905 | 0.861 | 0.832 | 0.804 | 0.8194 | 0.7594 | 0.7397 | 0.674
100 µM, coculture fibroblast: HMF | 0.8849 | 0.928 | 0.877 | 0.868 | 0.778 | 0.77 | 0.731 | 0.715 | 0.711
100 µM, coculture fibroblast: HPFa | 0.9467 | 0.962 | 0.939 | 0.885 | 0.89 | 0.889 | 0.839 | 0.843 | 0.775
100 µM, coculture fibroblast: HUF | 0.8631 | 0.8016 | 0.7492 | 0.689 | 0.647 | 0.636 | 0.593 | 0.591 | 0.584
100 µM, coculture fibroblast: Hs5 | 0.9773 | 0.94 | 0.9214 | 0.913 | 0.851 | 0.835 | 0.778 | 0.71 | 0.719
100 µM, coculture fibroblast: Hs27A | 0.916 | 0.987 | 0.9161 | 0.984 | 0.807 | 0.761 | 0.903 | 0.815 | 0.93
100 µM, coculture fibroblast: Hs343T | 0.895 | 0.9596 | 0.922 | 0.92 | 0.839 | 0.83 | 0.796 | 0.774 | 0.772
100 µM, coculture fibroblast: WS1 | 0.847 | 0.795 | 0.758 | 0.709 | 0.667 | 0.628 | 0.586 | 0.559 | 0.551
